Source: the supplement of paper PMC8104966
Some of the results follow. Repeats in this data set agree poorly, so a single value says little.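 U2OS cells carrying ACE2 were mixed with U2OS cells carrying full-length spike, and fusion was scored by imaging as the share of nuclei showing both cell types' fluorescent markers. A compound counts as an inhibitory hit when it is non-toxic and its fusion z-score falls below -3, meaning more than three standard deviations below the plate's DMSO wells.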

tested on: U2OS ACE2 x SARS-CoV-2 spike co-culture; test: cell-cell fusion (fraction fused) z-score vs plate DMSO control; higher = more fusion; settings: 30 µM; 5 h; toxicity class: non-toxic, passed QC

Structure (SMILES) | cell-cell fusion (z-score)
NS(=O)(=O)c1cc2c(cc1Cl)NCNS2(=O)=O [Hydrochlorothiazide] | inactive: 3.94
NS(=O)(=O)c1cc2c(cc1Cl)NCNS2(=O)=O | inactive: 1.91
CC(=O)OCC(=O)[C@@]1(O)CC[C@H]2[C@@H]3CCC4=CC(=O)CC[C@]4(C)[C@H]3[C@@H](O)C[C@@]21C [Hydrocortisone acetate] | inactive: 2.3
Cn1cnc2c(NCc3ccccc3)nc(NCCO)nc21 [Olomoucine] | inactive: 3.08
CCCNC(C)C(=O)Nc1ccccc1C.Cl (stereo not given) [Propitocaine hydrochloride] | inactive: 3.36
CCOc1cc(NC(C)=O)ccc1C(=O)OC | inactive: 2.36
C[C@@H](c1ncncc1F)[C@](O)(Cn1cncn1)c1ccc(F)cc1F [Voriconazole] | inactive: 1.24
CCCc1ncc(C[n+]2ccccc2C)c(N)n1.[Cl-] | inactive: 2.84
Cc1cc(N)c2ccccc2[n+]1CCCCCCCCCC[n+]1c(C)cc(N)c2ccccc21.[Cl-].[Cl-] [Dequalinium chloride hydrate] | inactive: 1.46
CCOC(=O)C1=C(O)C(=O)N(Cc2ccccc2)C1 | inactive: 2.11
COC[C@]12CN(C=O)C3[C@@H]4[C@H](OC)C1[C@]3(C1CC3(O)C(OC)C(O)C4(OC(C)=O)C1C3OC(=O)c1ccccc1)[C@@H](OC)C[C@H]2O (stereo not given in full) | inactive: 1.64
NC(=O)c1cccnc1 | inactive: 2.65
O=C(N[C@H]1CN2CC[C@H]1CC2)C1=CC2=C(OC=C2)C=N1 | inactive: 1.9
Cc1ccc(C(=O)Nc2ccc(S(=O)(=O)[O-])c3cc(S(=O)(=O)[O-])cc(S(=O)(=O)[O-])c23)cc1NC(=O)c1cccc(NC(=O)Nc2cccc(C(=O)Nc3cc(C(=O)Nc4ccc(S(=O)(=O)[O-])c5cc(S(=O)(=O)[O-])cc(S(=O)(=O)[O-])c45)ccc3C)c2)c1.[Na+].[Na+].[Na+].[Na+].[Na+].[Na+] [Suramin sodium salt] | active: -4.51
NC(=O)c1cccc(N)c1 | inactive: 2.27
CC(CCc1ccccc1)NCC(O)c1ccc(O)c(C(N)=O)c1.Cl (stereo not given) [Labetalol hydrochloride] | inactive: 2.49
COc1cc(C(=O)OCCCN2CCCN(CCCOC(=O)c3cc(OC)c(OC)c(OC)c3)CC2)cc(OC)c1OC.Cl.Cl | inactive: 0.324
CN1CCN(CC/C=C2\c3ccccc3Sc3ccc(S(=O)(=O)N(C)C)cc32)CC1 | inactive: -1.64
CN[C@@H]1[C@H](O)[C@H](NC)[C@H]2O[C@@]3(O)C(=O)C[C@@H](C)O[C@H]3O[C@@H]2[C@H]1O.Cl.Cl | inactive: 0.933
COc1cc2c(cc1OC)C1C(=O)c3c(cc4c(c3O)C=CC(C)(C)O4)OC1CO2 (stereo not drawn) [beta-TOXICAROL] | inactive: 1.74
CC(C)(C)NCC(O)COc1cccc2c1CCC(=O)N2.Cl (stereo not given) | inactive: 1.22
CC1CCCC(C)N1 (stereo not given) | inactive: 1.4
CN1C2CCC1CC(OC(c1ccccc1)c1ccccc1)C2.CS(=O)(=O)O (stereo not given) [Benztropine mesylate] | inactive: 2.23

Structure (SMILES) | cell-cell fusion (z-score)
CNC(=O)Oc1ccc2c(c1)[C@]1(C)CCN(C)[C@@H]1N2C [(-)-Physostigmine] | inactive: 2.58
CC(=O)N[C@@H](CC(C)C)C(=O)O | inactive: 2.46
CN(C)CCCN1c2ccccc2Sc2ccc(Cl)cc21.Cl [Chlorpromazine hydrochloride] | inactive: 0.287
CCCCC1=NC2(CCCC2)C(=O)N1Cc1ccc(-c2ccccc2-c2nn[nH]n2)cc1 [Irbesartan] | inactive: 3.11
O=C(/C=C/c1cccnc1)NCCCCC1CCN(C(=O)c2ccccc2)CC1 | inactive: 1.67
OC[C@@H](O)[C@@H](O[C@@H]1O[C@H](CO)[C@H](O)[C@H](O)[C@H]1O)[C@H](O)[C@@H](O)CO | inactive: 3.29
CC(C)c1ccc2oc3nc(N)c(C(=O)O)cc3c(=O)c2c1 [Amlexanox] | inactive: 1
CC1=NN(c2ccc(C)c(C)c2)C(=O)/C1=N\Nc1cccc(-c2cccc(C(=O)O)c2)c1O.NCCO.NCCO [Eltrombopag Olamine] | inactive: 2.78
O=c1[nH]cnc2nc[nH]c12 | inactive: 2.02
CO[C@H]1O[C@@H]2O[C@]3(C)CC[C@@H]4[C@@H](C)CC[C@H]([C@H]1C)[C@]24OO3 [Artemether] | inactive: 1.35
CCCCCCCCCCCCc1ccc(S(=O)(=O)Nc2nncs2)cc1 | inactive: 1.19
CC(C)(C)NC(=O)[C@H]1CCC2C3CCC4NC(=O)C=C[C@]4(C)C3CC[C@@]21C (stereo not given in full) | inactive: 3.48
N#CC(CCCN1CCN(/N=C/c2cccnc2)CC1)(c1ccccc1)c1ccccc1 | inactive: 4.14
Nc1nc2c(cnn2CCc2ccccc2)c2nc(-c3ccco3)nn12 | inactive: -1.02
Cc1nc2ccccn2c(=O)c1CCN1CCC(C(=O)c2ccc(F)cc2)CC1 | inactive: 0.979
Cc1nc2ccccn2c(=O)c1CCN1CCC(C(=O)c2ccc(F)cc2)CC1 [Pirenperone] | inactive: 1.1
CCOC(=O)c1ncn2c1CN(C)C(=O)c1cc(F)ccc1-2 [Flumazenil] | inactive: 3.92
C[N+](C)(C)CCOC(=O)CBr.[Br-] [Bromoacetylcholine bromide] | inactive: 1.62
O=C(N[C@@H](CO)[C@H](O)c1ccc([N+](=O)[O-])cc1)C(Cl)Cl | inactive: 1.22
COc1cc2oc3cc(OC)c(OC)c(CC=C(C)C)c3c(=O)c2c(OC)c1CC=C(C)C | inactive: 2.72
CC(C)c1cccc(C(C)C)c1N1C(=O)c2ccc(O)cc2C1=O | inactive: 5.72
Cc1ccc(C(=O)Nc2ccc(S(=O)(=O)[O-])c3cc(S(=O)(=O)[O-])cc(S(=O)(=O)[O-])c23)cc1NC(=O)c1cccc(NC(=O)Nc2cccc(C(=O)Nc3cc(C(=O)Nc4ccc(S(=O)(=O)[O-])c5cc(S(=O)(=O)[O-])cc(S(=O)(=O)[O-])c45)ccc3C)c2)c1.[Na+].[Na+].[Na+].[Na+].[Na+].[Na+] | inactive: 2.46
